Data as given in PubChem BioAssay AID720504 (National Center for Advancing Translational Sciences (NCATS), 2013).
About 10,000 (2.8%) of roughly 360,000 compounds were called active. The shares of active, inactive and inconclusive entries below differ from those in the screen. Calls follow the shape of the dose curve; as a rule, active = well fitted inhibition curve with a large enough effect; inconclusive = small, poorly fitted or top-dose-only effect; inactive = flat fitted curve, though single readings scatter. A potency beside an inconclusive call is a rough fit, not a confirmed value.

Chains of the proteins cited; added tags and fusions are not shown.
UniProt P53350, whole entry, looked up: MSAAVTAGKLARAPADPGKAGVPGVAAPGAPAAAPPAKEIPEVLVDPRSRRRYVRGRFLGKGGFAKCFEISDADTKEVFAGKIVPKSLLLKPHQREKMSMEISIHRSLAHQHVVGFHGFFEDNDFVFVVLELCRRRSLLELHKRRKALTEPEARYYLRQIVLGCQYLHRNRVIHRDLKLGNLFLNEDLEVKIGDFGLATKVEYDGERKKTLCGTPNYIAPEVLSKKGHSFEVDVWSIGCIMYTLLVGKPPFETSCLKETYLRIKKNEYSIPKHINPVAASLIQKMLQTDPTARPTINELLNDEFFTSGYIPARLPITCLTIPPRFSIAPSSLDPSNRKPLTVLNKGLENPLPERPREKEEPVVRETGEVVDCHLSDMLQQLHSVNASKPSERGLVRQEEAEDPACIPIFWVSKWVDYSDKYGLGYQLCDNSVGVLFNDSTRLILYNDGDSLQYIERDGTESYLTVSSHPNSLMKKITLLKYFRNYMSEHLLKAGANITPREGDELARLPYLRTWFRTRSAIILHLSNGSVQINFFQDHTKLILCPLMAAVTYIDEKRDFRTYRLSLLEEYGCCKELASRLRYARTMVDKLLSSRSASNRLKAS

Target: Serine/threonine-protein kinase PLK1 (Homo sapiens) (UniProt P53350)
Assay: qHTS for Inhibitors of PLK1-PDB (polo-like kinase 1 - polo-box domain): Primary Screen; also: nearly all actives have a fitted effect of over 65% in size; as to max response, negative = inhibition: series mostly up to about 57 µM
Conditions: Plk1 PBD binding of FITC phosphopeptide, fluorescence polarization
% is scaled to controls: 0 for no effect and ±100 for the full control effect; potency is read from the fitted curve at half-maximal effect.

| SMILES | max response, negative = inhibition | Potency |
| --- | --- | --- |
| O=C(CSc1nnc(-c2ccc(O)cc2)o1)Nc1ccccc1Br | inactive: -18.5% | – |
| Brc1ccccc1-c1nnc(CSc2nncn2-c2ccccc2)o1 | – | active: 26.7 µM |
| CN(C)S(=O)(=O)c1cccc(NC(=S)N/N=C/c2ccc(O)c(O)c2O)c1 | – | active: 5.97 µM |
| COc1ccccc1NC(=S)NCc1cccs1 | inactive: -6.41% | – |
| COc1ccc(CCN(C)C(=O)CN2C(=O)c3ccccc3S2(=O)=O)cc1OC | – | inconclusive: 23.8 µM [inhibitor, partial curve] |
| O=C(O)c1cc(/C=C/C(=O)c2cc(F)ccc2O)c2c(c1)COCO2 | – | inconclusive: 21.2 µM [inhibitor, partial curve] |
| CC1CCN(Cc2ccc(NC(=O)CC3Oc4ccccc4NC3=O)cc2)CC1 (stereo not given) | inactive: -27.7% | – |
| O=C(Nc1ccon1)c1csc2c1CCCC2 | – | inconclusive: 23.8 µM [inhibitor, partial curve] |
| COCc1cc(C)n(CC(=O)NC(C)c2ccccc2)c(=O)c1C#N (stereo not given) | – | inconclusive: 23.8 µM [inhibitor, single point] |
| O=C(COc1ncnc2ccccc12)NCCc1ccc(F)cc1 | – | inconclusive: 21.2 µM [inhibitor, single point] |
| COc1cccc(-c2[nH]nc3c2C(c2ccoc2)C(C#N)=C(N)O3)c1 (stereo not given) | – | active: 26.7 µM |
| COc1ccc(Br)cc1CNc1ccc(O)cc1 | – | active: 29.9 µM |
| O=C(O)c1cc(-c2ccc(/C=N/NC(=S)Nc3ccccc3)o2)ccc1Cl | – | inconclusive: 21.2 µM [inhibitor, partial curve] |
| O=C(CSc1nc2ccccc2s1)NCc1cc([N+](=O)[O-])ccc1O | – | active: 18.9 µM |
| CC(CCCC(C)(C)O)CC1C2=C(CCCC2=O)OC2=C1C(=O)CCC2 (stereo not given) | inactive: -3.27% | – |
| O=C1/C(=N\S(=O)(=O)c2cccs2)C([n+]2cccc(Cc3ccccc3)c2)=C([O-])c2ccccc21 | – | inconclusive: 18.9 µM [inhibitor, partial curve] |
| CS(=O)(=O)c1cccc(-c2ccc3nncn3c2)c1 | inactive: -8.79% | – |
| COc1ccc(/C=N/n2cc(-c3ccccc3)nc2N)cc1 | inactive: -22.5% | – |
| O=Cc1ccc(OCc2nnsc2Cl)cc1 | – | inconclusive: 33.6 µM [inhibitor, single point] |
| O=C(CSc1nnc(C2COc3ccccc3O2)o1)N1CCCC1 (stereo not given) | – | active: 21.2 µM |
| N#Cc1c(-c2ccccc2)[nH]c(=S)[nH]c1=O | inactive: -5.03% | – |
| COc1ccc(NS(=O)(=O)c2ccc(NC(=S)NC(=O)c3cccnc3)cc2)nn1 | – | inconclusive: 33.6 µM [inhibitor, single point] |
| O=c1c(Cl)c(Cl)cnn1Cc1nnc(-c2ccc(Cl)cc2)o1 | – | inconclusive: 13.4 µM [inhibitor, partial curve] |
| CCSC1(SCC)N=C(N)C2(C#N)C(c3ccc(OC)c(OC)c3OC)C12C#N (stereo not given) | – | active: 13.4 µM |
| CC(=O)C(C)Oc1ccc(Cc2ncc(C(F)(F)F)cc2Cl)cc1 (stereo not given) | inactive: -1.8% | – |

As a working copy, part of the list above.

| SMILES | max response, negative = inhibition | Potency |
| --- | --- | --- |
| COc1ccc(CCN(C)C(=O)CN2C(=O)c3ccccc3S2(=O)=O)cc1OC | – | inconclusive: 23.8 µM [inhibitor, partial curve] |
| O=C(O)c1cc(/C=C/C(=O)c2cc(F)ccc2O)c2c(c1)COCO2 | – | inconclusive: 21.2 µM [inhibitor, partial curve] |
| CC1CCN(Cc2ccc(NC(=O)CC3Oc4ccccc4NC3=O)cc2)CC1 (stereo not given) | inactive: -27.7% | – |
| O=C(Nc1ccon1)c1csc2c1CCCC2 | – | inconclusive: 23.8 µM [inhibitor, partial curve] |
| COCc1cc(C)n(CC(=O)NC(C)c2ccccc2)c(=O)c1C#N (stereo not given) | – | inconclusive: 23.8 µM [inhibitor, single point] |
| O=C(COc1ncnc2ccccc12)NCCc1ccc(F)cc1 | – | inconclusive: 21.2 µM [inhibitor, single point] |
| COc1cccc(-c2[nH]nc3c2C(c2ccoc2)C(C#N)=C(N)O3)c1 (stereo not given) | – | active: 26.7 µM |
| COc1ccc(Br)cc1CNc1ccc(O)cc1 | – | active: 29.9 µM |
| O=C(O)c1cc(-c2ccc(/C=N/NC(=S)Nc3ccccc3)o2)ccc1Cl | – | inconclusive: 21.2 µM [inhibitor, partial curve] |
| O=C(CSc1nc2ccccc2s1)NCc1cc([N+](=O)[O-])ccc1O | – | active: 18.9 µM |
| CC(CCCC(C)(C)O)CC1C2=C(CCCC2=O)OC2=C1C(=O)CCC2 (stereo not given) | inactive: -3.27% | – |
| O=C1/C(=N\S(=O)(=O)c2cccs2)C([n+]2cccc(Cc3ccccc3)c2)=C([O-])c2ccccc21 | – | inconclusive: 18.9 µM [inhibitor, partial curve] |
| CS(=O)(=O)c1cccc(-c2ccc3nncn3c2)c1 | inactive: -8.79% | – |

Further compounds.

| SMILES | max response, negative = inhibition | Potency |
| --- | --- | --- |
| CN(Cc1ccccc1)c1ccc(C(CC(N)=O)NC(=O)c2ccccc2)cc1[N+](=O)[O-] (stereo not given) | inactive: -3.52% | – |
| Cc1cccc2cc3c(NC(=O)C(C)(C)C)nn(CC(C)C)c3nc12 | – | inconclusive: 26.7 µM [inhibitor, single point] |
| Cc1ccc(S(=O)(=O)C/N=C(/NC(=S)N(c2ccccc2)c2ccccc2)c2ccccc2)cc1 | – | inconclusive: 11.9 µM [inhibitor, partial curve] |
| COC(=O)CCC(=O)OC1(C)C(=O)C=C2C=C(C3CC3)N(CCCOC(C)C)C=C2C1=O (stereo not given) | – | active: 29.9 µM |
| CCOc1ccc(NC(=O)c2cc3ccccc3cc2OC)cc1 | inactive: -4.29% | – |
| Cc1nnc(N2C(=O)c3cccc4c([N+](=O)[O-])ccc(c34)C2=O)s1 | – | inconclusive: 33.6 µM [inhibitor, partial curve] |
| CCOc1ccc2nc(NC(=O)CN3CCN(C)CC3)sc2c1 | inactive: -11.3% | – |
| O=C(NCc1cc(Cl)cc(Cl)c1)c1ccc2sc([C@H]3C[C@H](O)[C@@H](CO)O3)nc2c1 | inactive: -1.7% | – |
| COc1ccc(C(=O)NCc2ccc3c(c2)OCO3)c(OC)c1 | – | active: 26.7 µM |
| Cc1cnc(NC(=O)C2(c3ccccc3)CC2)s1 | inactive: 3.21% | – |
| C#CC[N+](C)(C)CCN1C(=O)C2C(c3ccccc3)C=CC(c3ccccc3)C2C1=O (stereo not given) | inconclusive: -35.6% [inhibitor] | – |
| COc1ccccc1N1CCN(C(c2ccc(Cl)cc2)c2nnnn2C(C)(C)C)CC1 (stereo not given) | inactive: -9.5% | – |
| COc1ccc(SCCN2CCN(CC(C)C)CCC2=O)cc1 | inconclusive: -36.8% [inhibitor] | – |
| S=C1SCN(Cc2cccnc2)CN1Cc1cccnc1 | inactive: -0.425% | – |
| CCN(CCCNC(=O)c1c(C)cc(=O)oc1C)c1ccccc1 | inactive: 0.973% | – |
| Clc1ccc(OCCn2cnc3ccccc32)cc1 | – | active: 2.99 µM |
| CCOC(=O)c1c(C)[nH]c(C(=O)CSc2ccc(Cl)cc2)c1C | inactive: -9.94% | – |
| CC(=O)N1CCN(C2=NC(=O)C(=C3CCCCC3)S2)CC1 | – | inconclusive: 21.2 µM [inhibitor, partial curve] |
| Cc1ccccc1S(=O)(=O)N1CCN(C)CC1 | inactive: -9.39% | – |
| NC(=O)c1cccc(-c2ccnc3c2CC(C(=O)NCCc2ccccc2)O3)c1 (stereo not given) | inactive: 1.41% | – |
| COc1cc(-c2c(-c3cc(OC)c(OC)c(OC)c3)noc2C)ccc1F | inactive: 3.31% | – |
| COc1ccc(OC)c(S(=O)(=O)Nc2c(C)n(C)n(-c3ccccc3)c2=O)c1 | inactive: -13.9% | – |
| CC(=O)C1=C(O)C(=O)N(Cc2ccco2)C1c1ccc(F)cc1 (stereo not given) | inactive: -2.22% | – |
| S=c1[nH]nc(-c2ccccn2)n1/N=C/c1ccc(-c2ccccc2Cl)o1 | – | inconclusive: 11.9 µM [inhibitor, partial curve] |
| COc1ccccc1/C=C1/C(=O)N(c2cc(C)cc(C)c2)C(c2cccc([N+](=O)[O-])c2)S1(=O)=O (stereo not given) | – | inconclusive: 1.34 µM [inhibitor, full curve] |
